The values below come from paper doi:10.1101/2023.03.15.532784.

By UniProt entry, the sequences of proteins in these tests, tags left out.
UniProt Q9HBA0: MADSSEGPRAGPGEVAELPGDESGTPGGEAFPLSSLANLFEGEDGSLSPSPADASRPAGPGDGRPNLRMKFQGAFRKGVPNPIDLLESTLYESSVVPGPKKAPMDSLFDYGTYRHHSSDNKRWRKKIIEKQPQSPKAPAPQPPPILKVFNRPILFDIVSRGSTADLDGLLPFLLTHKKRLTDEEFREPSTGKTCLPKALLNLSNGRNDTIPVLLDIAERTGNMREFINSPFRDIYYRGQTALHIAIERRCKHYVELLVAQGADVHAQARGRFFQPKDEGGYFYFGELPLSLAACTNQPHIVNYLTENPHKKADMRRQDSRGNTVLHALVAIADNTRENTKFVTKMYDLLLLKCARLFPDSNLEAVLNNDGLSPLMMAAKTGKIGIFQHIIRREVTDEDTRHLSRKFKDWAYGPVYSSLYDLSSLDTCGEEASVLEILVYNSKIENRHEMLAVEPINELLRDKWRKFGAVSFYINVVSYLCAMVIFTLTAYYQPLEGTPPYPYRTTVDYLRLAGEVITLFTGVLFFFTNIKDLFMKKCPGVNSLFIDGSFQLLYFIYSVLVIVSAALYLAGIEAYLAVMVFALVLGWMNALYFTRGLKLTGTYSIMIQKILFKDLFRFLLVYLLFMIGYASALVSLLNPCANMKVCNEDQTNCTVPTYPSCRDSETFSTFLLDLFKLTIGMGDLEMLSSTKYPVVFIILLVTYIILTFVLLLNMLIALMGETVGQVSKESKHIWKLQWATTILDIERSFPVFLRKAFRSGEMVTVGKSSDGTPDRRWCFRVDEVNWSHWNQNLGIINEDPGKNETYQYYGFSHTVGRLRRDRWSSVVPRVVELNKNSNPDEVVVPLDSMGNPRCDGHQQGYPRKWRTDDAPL
UniProt P61586: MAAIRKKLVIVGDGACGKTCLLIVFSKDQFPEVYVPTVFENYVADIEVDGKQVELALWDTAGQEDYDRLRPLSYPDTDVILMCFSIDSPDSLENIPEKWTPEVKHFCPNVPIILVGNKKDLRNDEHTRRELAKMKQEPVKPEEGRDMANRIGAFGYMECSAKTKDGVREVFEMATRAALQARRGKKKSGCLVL

No constants are given. Whether binding was seen depends on the method and setting. In cells and extracts the contact can be indirect. Some results given as binding are weak or reduced against the parent protein; the word gives no strength.

The assay deals with GFP-tagged WT TRPV4 (human) (UniProt Q9HBA0). The assay is described as follows: co-IP.

On to “Myc-tagged WT RhoA (from UniProt P61586 1-193)”, for which the binding entry was “binds”.
